Converted amounts (≈) assume the structure as drawn.
Test system: Candida albicans
Assay: Antimicrobial activity, broth microdilution MIC
Format: cell-based
Details: tested 256 to 0.5 µg mL^−1, 24 h, '-' not defined, no MIC in tested range, read-out: MIC C. albicans

MIC: 1 µg/mL (≈ 1.08 µM)
SMILES: C[C@@H]1[C@H](O)[C@@H](C)/C=C/C=C/C=C/C=C/C=C/C=C/C=C/[C@H](O[C@@H]2O[C@H](C)[C@@H](O)[C@H](N)[C@@H]2O)C[C@@H]2O[C@](O)(C[C@@H](O)C[C@@H](O)[C@H](O)CC[C@@H](O)C[C@@H](O)CC(=O)O[C@H]1C)C[C@H](O)[C@H]2C(=O)O [Amphotericin B, reference compound]

Source: paper PMC8618934, “Synthesis, Crystal Structure, and Biological Evaluation of Novel 5-Hydroxymethylpyrimidines” (Materials, 2021)
